Data from the supplement of paper PMC3334620.
In all, about 33,000 sequences were measured (“E-score (-0.5 to 0.5)”: median about -0.0034, highest 2% from about 0.25 on). This is one part of the list.

What follows are sequences tested against T1, Yap3 (UniProt P38749) (assay: PBM E-score (8-mer binding enrichment) (E-score (-0.5 to 0.5)); higher = stronger / more preferred TF binding). Conditions: protein concentration: 100 nM; construct: GST-full length.
T1 sequence: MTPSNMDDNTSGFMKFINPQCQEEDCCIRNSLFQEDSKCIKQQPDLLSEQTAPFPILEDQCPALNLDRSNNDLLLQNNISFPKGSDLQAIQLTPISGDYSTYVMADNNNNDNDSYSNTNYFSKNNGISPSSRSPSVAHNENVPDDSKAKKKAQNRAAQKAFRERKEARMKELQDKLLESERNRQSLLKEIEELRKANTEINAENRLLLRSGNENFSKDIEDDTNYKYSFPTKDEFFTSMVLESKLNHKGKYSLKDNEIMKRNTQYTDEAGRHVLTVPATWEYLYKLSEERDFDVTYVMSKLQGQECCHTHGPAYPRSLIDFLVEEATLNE
Outline: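 Yeast transcription factors, full-length or as DNA-binding domains, were expressed with a GST tag using PURExpress in vitro transcription/translation. At about 100-200 nM they were applied to universal all-10-mer Agilent arrays, double-stranded by primer extension on fresh or once-stripped slides. Fluorescent anti-GST detected bound protein, and masliner normalised the scans. E-scores for ungapped eight-base words, pooled with reverse complements, came from the Universal PBM Analysis Suite.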

Sequence | PBM E-score
ACGGACGT | -0.0852
GATGAGCA | 0.127
CAATTGCA | 0.0256
CACTTGCG | -0.0261
ACAAGCAG | -0.068
CGGCTTCA | 0.0496
CAGTGGAG | 0.0624
CGCTCGGC | -0.104
CCCGACCA | -0.0156
AGGCGTAG | -0.203
ATGTGCGC | 0.136
CTGCAATA | 0.143
GAGATACA | 0.167
AGGATCAG | -0.151
CTTACCCA | 0.159
TTCCAGAA | 0.153
GGATTACC | 0.14
TGTGACAA | 0.0303
GATAGGAA | 0.0325
ACTTCAGC | -0.0927
AAGCGTGG | 0.0152
GACACGGA | -0.00232
CCAATACG | -0.0785
GACCTACA | 0.0406
AAGAAATT | 0.199

Sequence | PBM E-score
AGAACGCT | -0.139
GATACAAA | 0.162
CATGGTAG | -0.151
AAAGACGT | 0.135
CAGCGGGG | -0.154
ATCCTAAG | 0.0776
GTTTCCTA | 0.144
ACAGCAAC | 0.114
CGTATCAC | 0.0764
CATTGTAC | -0.0434
AAAACGGA | 0.116
AATGTTTG | -0.0638
GATGGAAC | 0.0141
AGAGTTAC | -0.156
CATTATAA | 0.0345
GCCTAGTA | -0.0192
AAGCATAG | -0.0363
ACAGTTGG | 0.00482
ACGAAGCA | 0.00791
ATATCGAG | 0.0413
GACTGAGC | -0.255
CATCATAC | 0.147
GGGGTCGA | -0.24
ATTATCGA | 0.132
GCAAATAC | 0.0311

Sequence | PBM E-score
AATGCTCT | -0.0877
CCCTCCTA | -0.196
TCTAGTCA | 0.0771
CTGGCATA | -0.00058
CAACGAGG | -0.00301
CATAAGCC | 0.17
CACCACGC | -0.249
GAGGGTCA | -0.287
GTACATGA | 0.0913
TGCTCAAA | -0.00215
GCTCTTAC | 0.0508
CCGCGGTA | 0.123
CAACGAGA | 0.0884
CCCATACG | -0.055
AATTGTCA | 0.168
CGGGGCCC | -0.128
CAATATTG | 0.213
AGATTCAA | 0.116
AACATGCT | -0.056
GTAACGAA | 0.0928
TAGACAGA | 0.0906
ACCGATTG | 0.0631
GAAAGCTC | -0.2
CAGCCAGA | -0.155
AGAGAGGC | -0.0925

Sequence | PBM E-score
AAAAGAGT | 0.0632
CGTATGCA | 0.0502
AAAATGCC | 0.0391
CTTGATCC | -0.0163
AAATGGTA | 0.236
GTTCACAA | 0.043
CCTTAGAA | -0.00274
ATGGTTCA | 0.105
CGGAAGGA | -0.213
ACTGATAC | -0.0341
AAATCTGC | -0.0149
GCTCGCCC | -0.132
ATTGACAC | -0.0406
CTGAGCGC | -0.129
AAGGAGTC | -0.29
AACCCGTA | -0.0887
CTAGCATA | 0.0488
GATAACTA | 0.169
AAACCGGT | -0.0491
CCGGTTCA | -0.159
CGTCCGGC | -0.0999
AGCGTAGG | -0.122
GAAGAGGC | -0.225
ATCCAACC | 0.00913
GAGGTCAA | -0.115

Sequence | PBM E-score
GCGGTCCA | -0.366
GCTAATGA | 0.0606
AGGCCTAT | -0.0769
CGAGCTAA | -0.0581
GATGCAAA | 0.0581
GCTGAGAC | -0.0631
GCCGGGTA | -0.271
AGACGGCT | -0.174
GTATAACA | 0.133
ACACTTGC | 0.0282
GATGCCGA | -0.0397
GGCGTGAC | -0.199
GCTGGAGA | -0.248
AACATCCT | 0.105
AGAGACCT | -0.135
CCATGATA | 0.111
ATACTCAG | 0.206
ACATAAGC | 0.153
GTGCACCA | 0.0369
TGTTAACA | 0.14
ACTTTTAG | 0.0851
CATCTAGA | 0.0489
ATGGTCGC | -0.128
CATTGGCC | -0.235
CCTACCCA | -0.0774

Five entries from above in another layout.
Sequence,PBM E-score
CCATGATA,0.111
ATACTCAG,0.206
ACATAAGC,0.153
GTGCACCA,0.0369
TGTTAACA,0.14

The list continues.

Sequence | PBM E-score
GGATATAA | 0.164
TCCCTCAA | -0.107
GCTAGGAC | -0.11
ACGTGTCG | -0.0456
GATTCGGA | 0.247
GGTTCTTA | 0.095
AGATCACT | 0.0687
CGACACAA | -0.062
GCTGCGAA | 0.1
ACACAGCC | 0.00152
AGGTCGTC | -0.121
AAGTACTT | -0.202
AATCACAT | 0.148
GGCCGGGA | -0.187
CAGATAGC | -0.148
TACGTCTA | 0.0516
GCCTCGGA | -0.126
GACTCTCA | -0.0203
ACACACAT | 0.148
CAGTTGAG | -0.182
CTAAGAGA | -0.112
AAGCTGAG | 0.0158
TATAGTCA | 0.167
GTATGGTA | 0.13
CCAGACTC | -0.15

Shown field by field: part of the list above
ACACACAT
  PBM E-score = 0.148
CAGTTGAG
  PBM E-score = -0.182
CTAAGAGA
  PBM E-score = -0.112
AAGCTGAG
  PBM E-score = 0.0158

Exported as labelled records: entries from further up.
AAGTACTT
  PBM E-score: -0.202
AATCACAT
  PBM E-score: 0.148

Next part.

Sequence | PBM E-score
GACAGTAC | 0.0123
GAGAGCAC | -0.0454
CCCCTAGG | -0.213
CGAGAACC | -0.00819
AAGTTACG | 0.202
AGATCGCG | 0.0544
GCAGAAAC | 0.057
GCTAGATA | 0.0845
GACACGCA | 0.017
ACTAAAAG | 0.0215
CAGGACCC | -0.258
CGCAGTGA | -0.0281
GTAGATAC | -0.0029
CACCACTA | 0.138
GCAGGTCC | -0.152
CCAGGACG | -0.117
ACATGACG | 0.0689
CCACGAAC | 0.0833
ATTGTAAC | 0.16
AAGACGGC | -0.0667
GAGTGCAA | 0.115
GAATCTAC | -0.164
